{"sequences": {"note": "Chains of the proteins cited; added tags and fusions are not shown.", "UniProt O60260": "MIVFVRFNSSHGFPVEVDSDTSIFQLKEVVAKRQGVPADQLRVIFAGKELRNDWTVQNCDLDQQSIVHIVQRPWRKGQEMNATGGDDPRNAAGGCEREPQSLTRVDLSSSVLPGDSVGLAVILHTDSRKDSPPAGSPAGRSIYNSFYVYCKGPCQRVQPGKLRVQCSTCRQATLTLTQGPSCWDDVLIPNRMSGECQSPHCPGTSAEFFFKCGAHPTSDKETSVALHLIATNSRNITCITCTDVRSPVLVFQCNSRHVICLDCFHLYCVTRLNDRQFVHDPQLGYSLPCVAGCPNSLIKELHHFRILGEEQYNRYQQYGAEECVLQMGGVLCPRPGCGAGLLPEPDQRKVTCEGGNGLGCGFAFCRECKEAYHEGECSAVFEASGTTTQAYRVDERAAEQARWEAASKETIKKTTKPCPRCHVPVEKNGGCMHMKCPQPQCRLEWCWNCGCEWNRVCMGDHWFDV", "UniProt Q96EP0": "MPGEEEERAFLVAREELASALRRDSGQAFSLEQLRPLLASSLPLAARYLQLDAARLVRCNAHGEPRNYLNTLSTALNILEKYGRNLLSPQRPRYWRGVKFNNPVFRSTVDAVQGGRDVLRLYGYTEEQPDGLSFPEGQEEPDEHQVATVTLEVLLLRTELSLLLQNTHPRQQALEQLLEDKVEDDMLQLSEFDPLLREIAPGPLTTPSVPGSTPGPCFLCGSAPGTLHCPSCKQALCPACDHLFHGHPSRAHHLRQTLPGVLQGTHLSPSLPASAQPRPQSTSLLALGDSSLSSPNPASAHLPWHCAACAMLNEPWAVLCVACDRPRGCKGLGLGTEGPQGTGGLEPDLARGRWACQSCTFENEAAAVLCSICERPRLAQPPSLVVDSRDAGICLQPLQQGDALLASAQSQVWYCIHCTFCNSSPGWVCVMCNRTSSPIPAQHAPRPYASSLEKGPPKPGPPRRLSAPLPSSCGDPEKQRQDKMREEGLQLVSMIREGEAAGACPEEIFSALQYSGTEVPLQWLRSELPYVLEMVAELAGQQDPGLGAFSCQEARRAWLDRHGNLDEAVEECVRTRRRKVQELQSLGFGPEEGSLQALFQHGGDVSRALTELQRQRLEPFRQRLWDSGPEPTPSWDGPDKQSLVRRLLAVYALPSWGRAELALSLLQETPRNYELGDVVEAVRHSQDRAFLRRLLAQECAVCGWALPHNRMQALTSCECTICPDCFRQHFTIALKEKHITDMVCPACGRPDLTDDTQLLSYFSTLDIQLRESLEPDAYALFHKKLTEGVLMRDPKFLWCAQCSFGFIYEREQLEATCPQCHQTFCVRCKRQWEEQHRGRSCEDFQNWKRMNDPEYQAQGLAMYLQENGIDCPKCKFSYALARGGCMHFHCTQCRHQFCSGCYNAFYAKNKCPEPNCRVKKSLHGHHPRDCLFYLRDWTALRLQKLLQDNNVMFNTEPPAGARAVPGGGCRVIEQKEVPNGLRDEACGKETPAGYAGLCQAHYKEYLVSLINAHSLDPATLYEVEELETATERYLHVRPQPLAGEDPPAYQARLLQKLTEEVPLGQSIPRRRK", "UniProt Q7Z434": "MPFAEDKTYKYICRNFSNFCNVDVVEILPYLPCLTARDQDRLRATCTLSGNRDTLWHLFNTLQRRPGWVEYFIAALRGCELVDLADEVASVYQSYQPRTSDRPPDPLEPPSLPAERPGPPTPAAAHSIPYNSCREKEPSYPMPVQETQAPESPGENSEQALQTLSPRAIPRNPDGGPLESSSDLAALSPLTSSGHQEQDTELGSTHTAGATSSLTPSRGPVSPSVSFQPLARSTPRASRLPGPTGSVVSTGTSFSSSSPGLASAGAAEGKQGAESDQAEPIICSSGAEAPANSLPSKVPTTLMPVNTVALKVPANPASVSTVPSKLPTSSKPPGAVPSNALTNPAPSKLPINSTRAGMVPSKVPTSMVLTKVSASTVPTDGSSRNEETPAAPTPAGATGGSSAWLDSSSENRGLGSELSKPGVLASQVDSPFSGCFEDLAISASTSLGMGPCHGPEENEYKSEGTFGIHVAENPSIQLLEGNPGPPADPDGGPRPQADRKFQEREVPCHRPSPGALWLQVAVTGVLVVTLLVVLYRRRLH"}, "source": "paper PMC4922663", "assay_in_all_cases": "co-IP", "key": {"[1]": {"molecular_target": "Parkin (human (endogenous in HepAD38 and Huh7)) (UniProt O60260)"}, "[2]": {"molecular_target": "FLAG-HOIP (UniProt Q96EP0)"}, "[3]": {"molecular_target": "mitochondrial antiviral signaling protein (MAVS) (human (endogenous in HepAD38, Huh7 and HBx expressing cells)) (UniProt Q7Z434)"}, "[4]": {"molecular_target": "HA-Parkin (UniProt O60260)"}}, "note": "Results are given in words; binding and its absence hold for the method and conditions named. Binding seen in cells or lysates may run through a third protein. Some binding calls cover weakened binding; strength is not graded here.", "data": [{"substance": "mitochondrial antiviral signaling protein (MAVS) (from UniProt Q7Z434 1-540)", "values": [{"measurement": "binding", "setting": "[1]", "value": "binds"}]}, {"substance": "Parkin (from UniProt O60260 1-465)", "values": [{"measurement": "binding", "setting": "[2]", "value": "binds"}, {"measurement": "binding", "setting": "[3]", "value": "binds"}]}, {"substance": "MAVS-FLAG (from UniProt Q7Z434 1-540)", "values": [{"measurement": "binding", "setting": "[4]", "value": "binds"}]}]}
